# PubChem BioAssay AID1259308, NCATS, 2017
# Assay: 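Genes whose loss raises luciferase production in HEK293 cells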 (primary screen)
# Cells: human HEK293 embryonic kidney cells stably expressing firefly luciferase (HEK-CMV-Luc2-Hygro)
# Knock-down reagent: single siRNA against human genes, 0.8 pmol siRNA per well
# Time to read-out: 72 h
# Read-out: 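Luciferase light (ONE-Glo) measured on one replicate plate set and viability (CellTiter-Glo) on the other, scaled to a negative control siRNA, with robust z-scores and luciferase per cell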
# Scale: total luciferase, z-score and total luciferase, % of control: higher = more reporter protein produced
# Active means: 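Active when the median/MAD z-score for overall luciferase is greater than 3; a gene was taken forward for validation with new siRNAs if at least two of its three siRNAs passed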
# Calls: active = raised luciferase; inactive = no rise
# In all, the deposit lists about 59,000 reagents; shown is a random part of them. Over the whole deposit, about 1,510 (2.6%) got an active call. 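Calls use total luciferase alone and ignore viability, so some active siRNAs may act by altering cell number.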 A number with no mark means an inactive call. Reagents against one gene are numbered here. Further read-outs or replicates are left out here.
gene symbol,reagent no.,"total luciferase, z-score","total luciferase, % of control"
LRRC58 (leucine rich repeat containing 58),1,0.0943,83.8
LRRC58 (leucine rich repeat containing 58),2,0.698,95.8
LRRC58 (leucine rich repeat containing 58),3,0.348,88.8
KRCC1 (lysine rich coiled-coil 1),1,-0.05,80.9
KRCC1 (lysine rich coiled-coil 1),2,0.639,94.6
KRCC1 (lysine rich coiled-coil 1),3,-0.216,77.6
"ERCC5 (ERCC excision repair 5, endonuclease)",1,-0.642,69.1
"ERCC5 (ERCC excision repair 5, endonuclease)",2,-2.84,25.4
"ERCC5 (ERCC excision repair 5, endonuclease)",3,0.42,90.2
RABEPK (Rab9 effector protein with kelch motifs),1,1.22,106
RABEPK (Rab9 effector protein with kelch motifs),2,-1.87,44.7
RABEPK (Rab9 effector protein with kelch motifs),3,-0.642,69.1
LOC441052,1,0.87,99.2
LOC441052,2,0,81.9
LOC441052,3,0.0562,83
MKX (mohawk homeobox),1,-0.863,64.7
MKX (mohawk homeobox),2,1.29,108
MKX (mohawk homeobox),3,0.0954,83.8
PLA2G3 (phospholipase A2 group III),1,-0.21,77.7
PLA2G3 (phospholipase A2 group III),2,1.38,109
PLA2G3 (phospholipase A2 group III),3,2,122
TTC16 (tetratricopeptide repeat domain 16),1,-2.83,25.7
TTC16 (tetratricopeptide repeat domain 16),2,-2.53,31.6
TTC16 (tetratricopeptide repeat domain 16),3,1.66,115
SLU7 (spliceosome associated SLU7),1,0.123,84.3
SLU7 (spliceosome associated SLU7),2,0.49,91.6
SLU7 (spliceosome associated SLU7),3,1.36,109
TIMM8B (translocase of inner mitochondrial membrane 8 homolog B),1,0.124,84.3
TIMM8B (translocase of inner mitochondrial membrane 8 homolog B),2,-1.22,57.7
TIMM8B (translocase of inner mitochondrial membrane 8 homolog B),3,0.2,85.9
ANKFY1 (ankyrin repeat and FYVE domain containing 1),1,-1.08,60.4
ANKFY1 (ankyrin repeat and FYVE domain containing 1),2,0.667,95.1
ANKFY1 (ankyrin repeat and FYVE domain containing 1),3,1.43,110
INPPL1 (inositol polyphosphate phosphatase like 1),1,1.02,102
INPPL1 (inositol polyphosphate phosphatase like 1),2,1.19,106
INPPL1 (inositol polyphosphate phosphatase like 1),3,0.438,90.6
DIAPH1 (diaphanous related formin 1),1,-0.0956,80
DIAPH1 (diaphanous related formin 1),2,-1.41,53.8
DIAPH1 (diaphanous related formin 1),3,-0.00441,81.8
ZSWIM7 (zinc finger SWIM-type containing 7),1,1.04,103
ZSWIM7 (zinc finger SWIM-type containing 7),2,0.228,86.4
ZSWIM7 (zinc finger SWIM-type containing 7),3,-1.18,58.4
ATP13A4 (ATPase 13A4),1,-2.02,41.6
ATP13A4 (ATPase 13A4),2,-0.357,74.8
ATP13A4 (ATPase 13A4),3,0.53,92.4
CNRIP1 (cannabinoid receptor interacting protein 1),1,0.571,93.2
CNRIP1 (cannabinoid receptor interacting protein 1),2,0.367,89.2
CNRIP1 (cannabinoid receptor interacting protein 1),3,0.825,98.3
HSBP1 (heat shock factor binding protein 1),1,1.24,107
HSBP1 (heat shock factor binding protein 1),2,0.183,85.5
HSBP1 (heat shock factor binding protein 1),3,0.198,85.8
NXPH3 (neurexophilin 3),1,-1.36,54.8
NXPH3 (neurexophilin 3),2,0.353,88.9
NXPH3 (neurexophilin 3),3,1.25,107
PLEK2 (pleckstrin 2),1,-0.56,70.8
PLEK2 (pleckstrin 2),2,0.91,100
PLEK2 (pleckstrin 2),3,1.2,106
GOSR2 (golgi SNAP receptor complex member 2),1,-0.032,81.2
GOSR2 (golgi SNAP receptor complex member 2),2,0.241,86.7
GOSR2 (golgi SNAP receptor complex member 2),3,1.01,102
OR7G1 (olfactory receptor family 7 subfamily G member 1),1,1.27,107
OR7G1 (olfactory receptor family 7 subfamily G member 1),2,-0.0799,80.3
OR7G1 (olfactory receptor family 7 subfamily G member 1),3,-0.839,65.2
"PCDHGC4 (protocadherin gamma subfamily C, 4)",1,-0.793,66.1
"PCDHGC4 (protocadherin gamma subfamily C, 4)",2,-1,62
"PCDHGC4 (protocadherin gamma subfamily C, 4)",3,4.3 (active),167
LIPI (lipase I),1,-0.921,63.6
LIPI (lipase I),2,0.0277,82.4
LIPI (lipase I),3,0.972,101
SRPRB (SRP receptor subunit beta),1,0.322,88.3
SRPRB (SRP receptor subunit beta),2,-0.342,75.1
SRPRB (SRP receptor subunit beta),3,1.58,113
RGS7BP (regulator of G protein signaling 7 binding protein),1,-1.07,60.7
RGS7BP (regulator of G protein signaling 7 binding protein),2,-1.49,52.3
RGS7BP (regulator of G protein signaling 7 binding protein),3,0.119,84.2

5 entries from above, reformatted.
gene symbol	reagent no.	total luciferase, z-score	total luciferase, % of control
PLEK2 (pleckstrin 2)	3	1.2	106
GOSR2 (golgi SNAP receptor complex member 2)	1	-0.032	81.2
GOSR2 (golgi SNAP receptor complex member 2)	2	0.241	86.7
GOSR2 (golgi SNAP receptor complex member 2)	3	1.01	102
OR7G1 (olfactory receptor family 7 subfamily G member 1)	1	1.27	107
